# The list is a part of this screen's results and no random one: it is rich in T/C values a quarter to a half above the control, in often repeated tests (any T/C) and in doses without a T/C. Other doses and runs of a compound stand elsewhere. T/C is the treated group as % of the vehicle group. Some entries give survivors of the animals treated and no T/C: the source holds a T/C of zero for them, seemingly a mark for toxic or unscored doses. Some doses without a T/C left all or most animals alive at the check, yet need not have been tolerated: survival well below the control is almost never listed, so the zero probably covers shortened survival too. Counts of survivors are from the toxicity check (mostly the fifth day) where no day follows; animals may have died later. Schedule codes are those of the source, taken here to give the interval after Q, in days (D) or hours (H), and the number of doses after X. Some entries hold several experiments; the values are given in rising order. Where survival is the endpoint, this PubChem deposit counts one and a half times the control or more as active, and values a quarter to a half above the control carry no call in these data; other NCI protocols may use other cut-offs. Some T/C values carry the count of animals alive at the toxicity check (mostly the fifth day); where none is given, no animal had died by that day.
# Tested on: L1210 leukemia ip in BDF1 mice, survival T/C
# Experiment: NCI In Vivo Anticancer Drug Screen. Data for tumor model L1210 Leukemia (intraperitoneal) in B6D2F1 (BDF1) mice
# Details: T/C endpoint: mean survival time, higher T/C = longer survival
# [1] = dose: 200.0 mg/kg/injection, schedule: Q01DX001 (ip), vehicle: carboxymethylcellulose (CMC)
# [2] = dose: 400.0 mg/kg/injection, schedule: Q01DX001 (ip), vehicle: carboxymethylcellulose (CMC)
# [3] = dose: 200.0 mg/kg/injection, schedule: Q01DX009 (ip), vehicle: saline
# [4] = dose: 400.0 mg/kg/injection, schedule: Q01DX009 (ip), vehicle: saline
# [5] = dose: 400.0 mg/kg/injection, schedule: Q01DX009 (ip), vehicle: saline with Tween-80
# [6] = dose: 300.0 mg/kg/injection, schedule: Q01DX001 (ip), vehicle: saline
# [7] = dose: 50.0 mg/kg/injection, schedule: Q01DX009 (ip), vehicle: saline
# [8] = dose: 50.0 mg/kg/injection, schedule: Q04DX003 (ip), vehicle: saline
# [9] = dose: 100.0 mg/kg/injection, schedule: Q01DX009 (ip), vehicle: saline
# [10] = dose: 100.0 mg/kg/injection, schedule: Q04DX003 (ip), vehicle: saline
# [11] = dose: 200.0 mg/kg/injection, schedule: Q04DX003 (ip), vehicle: saline
# [12] = dose: 400.0 mg/kg/injection, schedule: Q04DX003 (ip), vehicle: saline
# [13] = dose: 200.0 mg/kg/injection, schedule: Q04DX003 (ip), vehicle: saline with Tween-80
# [14] = dose: 400.0 mg/kg/injection, schedule: Q04DX003 (ip), vehicle: saline with Tween-80
compound,measurement,setting,value
Nc1nc(=S)c2ncn(C3OC(CO)CC3O)c2[nH]1 (configuration not stated),T/C,"dose: 5.0 mg/kg/injection, schedule: Q01DX009 (ip), vehicle: carboxymethylcellulose (CMC)",130 % of control
same,T/C,"dose: 5.0 mg/kg/injection, schedule: Q01DX009 (ip), vehicle: other",142 % of control
same,T/C,"dose: 10.0 mg/kg/injection, schedule: Q01DX009 (ip), vehicle: carboxymethylcellulose (CMC)",136 % of control
same,T/C,"dose: 20.0 mg/kg/injection, schedule: Q01DX009 (ip), vehicle: carboxymethylcellulose (CMC)",145 % of control
same,T/C,"dose: 20.0 mg/kg/injection, schedule: Q01DX009 (ip), vehicle: other",137 % of control
same,T/C,"dose: 40.0 mg/kg/injection, schedule: Q01DX009 (ip), vehicle: carboxymethylcellulose (CMC)",145 % of control
same,T/C,"dose: 40.0 mg/kg/injection, schedule: Q01DX009 (ip), vehicle: other",137 % of control
same,T/C,"dose: 50.0 mg/kg/injection, schedule: Q01DX001 (ip), vehicle: carboxymethylcellulose (CMC)",148 % of control
same,T/C,"dose: 80.0 mg/kg/injection, schedule: Q01DX009 (ip), vehicle: carboxymethylcellulose (CMC)",130 % of control
same,T/C,"dose: 100.0 mg/kg/injection, schedule: Q01DX001 (ip), vehicle: carboxymethylcellulose (CMC)",146 % of control
same,T/C,"dose: 133.0 mg/kg/injection, schedule: Q01DX001 (ip), vehicle: carboxymethylcellulose (CMC)",137 % of control
same,T/C,[1],140 % of control
same,T/C,"dose: 300.0 mg/kg/injection, schedule: Q01DX001 (ip), vehicle: carboxymethylcellulose (CMC)",146 % of control
same,survivor count,[2],4 of 4
Cc1noc(N)c1[N+](=O)[O-],survivor count,[3],6 of 6
same,survivor count,[4],3 of 6
CC1=CC(=O)C(C(O)(C(F)(F)Cl)C(F)(F)Cl)C(C)(C)C1 (configuration not stated) (tested in a mixture with another compound),survivor count,[5],1 of 6
O=C(N/N=C/c1ccc(-c2ccccc2)cc1)Nc1ccccc1,survivor count,[5],5 of 6
Cc1ccc(Nc2c3ccccc3nc3ccccc23)cc1,T/C,"dose: 150.0 mg/kg/injection, schedule: Q01DX001 (ip), vehicle: saline",126 [5 of 6 alive] and 128 % of control
same,survivor count,"dose: 150.0 mg/kg/injection, schedule: Q01DX009 (ip), vehicle: saline with Tween-80",3 of 6
same,survivor count,[6],"0 of 6, 1 of 6, 2 of 6"
CC(=O)[O][Pb]([CH2]C(C)C)([CH2]C(C)C)[CH2]C(C)C,survivor count,"dose: 12.5 mg/kg/injection, schedule: Q01DX009 (ip), vehicle: Klucel (hydroxypropylcellulose) (HPC)",2 of 3
same,survivor count,"dose: 25.0 mg/kg/injection, schedule: Q01DX009 (ip), vehicle: Klucel (hydroxypropylcellulose) (HPC)",0 of 3
same,survivor count,"dose: 25.0 mg/kg/injection, schedule: Q04DX002 (ip), vehicle: Klucel (hydroxypropylcellulose) (HPC)",1 of 3
same,survivor count,"dose: 50.0 mg/kg/injection, schedule: Q04DX002 (ip), vehicle: Klucel (hydroxypropylcellulose) (HPC)",0 of 3
same,survivor count,"dose: 100.0 mg/kg/injection, schedule: Q01DX001 (ip), vehicle: Klucel (hydroxypropylcellulose) (HPC)",0 of 6
same,survivor count,"dose: 200.0 mg/kg/injection, schedule: Q01DX001 (ip), vehicle: Klucel (hydroxypropylcellulose) (HPC)",0 of 6
same,survivor count,"dose: 400.0 mg/kg/injection, schedule: Q01DX001 (ip), vehicle: Klucel (hydroxypropylcellulose) (HPC)",0 of 6
CC(C)=CC(=O)C1C(=O)c2ccccc2C1=O,survivor count,[1],0 of 4
same,survivor count,[2],0 of 4
c1ccc(C2CN3CCSC3=N2)cc1 (configuration not stated),survivor count,[7],0 of 6
same,survivor count,[8],0 of 4
same,survivor count,[9],0 of 6
same,survivor count,[10],0 of 4
same,survivor count,[3],0 of 6
same,survivor count,[11],1 of 4
same,survivor count,[4],0 of 6
same,survivor count,[12],0 of 4
CCc1nnnn1C12CC3CC(CC(C3)C1)C2,survivor count,[11],1 of 6
same,survivor count,[12],0 of 6
COC1/C=C/OC2(C)Oc3c(C)c(O)c4c(O)c(c(/C=N/N(C)c5ncnc6c5ncn6C5OC(CO)C(O)C5O)c(O)c4c3C2=O)NC(=O)C(C)=C/C=C/C(C)C(O)C(C)C(O)C(C)C(OC(C)=O)C1C (configuration not stated),T/C,[9],128 % of control
CCCCCCCCCCCC(=O)NC(=S)Nc1cc(Cl)ccc1C,survivor count,"dose: 100.0 mg/kg/injection, schedule: Q04DX003 (ip), vehicle: Klucel (hydroxypropylcellulose) (HPC)",5 of 6
same,survivor count,"dose: 200.0 mg/kg/injection, schedule: Q04DX003 (ip), vehicle: Klucel (hydroxypropylcellulose) (HPC)",6 of 6
same,survivor count,"dose: 400.0 mg/kg/injection, schedule: Q04DX003 (ip), vehicle: Klucel (hydroxypropylcellulose) (HPC)",5 of 6
CN(C)/C=N\c1c(C#N)c(CC#N)nn1-c1ccccc1,survivor count,[13],3 of 6
same,survivor count,[14],0 of 6
C#CCN(CC#C)C(=O)Nc1ccc(Cl)cc1,survivor count,"dose: 200.0 mg/kg/injection, schedule: Q04DX002 (ip), vehicle: saline with Tween-80",2 of 3
same,survivor count,"dose: 400.0 mg/kg/injection, schedule: Q04DX002 (ip), vehicle: saline with Tween-80",0 of 3
CCCCCCCCCCCCCC[Si](Cl)(Cl)Cl,survivor count,[6],2 of 6
C/C=C(/Cl)c1c(C)cc(C)c(CC(=O)O)c1C,survivor count,"dose: 400.0 mg/kg/injection, schedule: Q01DX009 (ip), vehicle: Klucel (hydroxypropylcellulose) (HPC)",6 of 6
CC(=O)OCCOc1ccc(C(C)(C)C)cc1,survivor count,"dose: 50.0 mg/kg/injection, schedule: Q01DX009 (ip), vehicle: Klucel (hydroxypropylcellulose) (HPC)",3 of 3
same,survivor count,"dose: 200.0 mg/kg/injection, schedule: Q01DX009 (ip), vehicle: Klucel (hydroxypropylcellulose) (HPC)",3 of 3
Nc1ccn(C2OC(COP(=O)(O)Oc3ccccc3)C(O)C2O)c(=O)n1 (configuration not stated),survivor count,[6],1 of 6
CC1(C)SC2C(NC(=O)C(C(=O)O)c3ccccc3)C(=O)N2C1C(=O)O (configuration not stated),T/C,[7],128 % of control
Cc1c2c(cc3c1OCN(C)C3)CN(C)CO2,survivor count,"dose: 400.0 mg/kg/injection, schedule: Q01DX001 (ip), vehicle: saline",1 of 4
COc1ccc(CN2CC(C)NC(C)C2)cc1 (configuration not stated),survivor count,"dose: 25.0 mg/kg/injection, schedule: Q01DX009 (ip), vehicle: water",6 of 6
same,survivor count,"dose: 50.0 mg/kg/injection, schedule: Q01DX009 (ip), vehicle: water",6 of 6
same,survivor count,"dose: 100.0 mg/kg/injection, schedule: Q01DX009 (ip), vehicle: water",5 of 6
same,survivor count,"dose: 200.0 mg/kg/injection, schedule: Q01DX009 (ip), vehicle: water",6 of 6
same,survivor count,"dose: 400.0 mg/kg/injection, schedule: Q01DX009 (ip), vehicle: water",0 of 6
NNC(=O)CNc1ccc(F)cc1Cl,survivor count,"dose: 400.0 mg/kg/injection, schedule: Q04DX002 (ip), vehicle: Klucel (hydroxypropylcellulose) (HPC)",1 of 3
CCCCC(CC)COC(=O)C[N+](C)(C)CCOC(c1ccccc1)c1ccccc1 (configuration not stated),survivor count,"dose: 25.0 mg/kg/injection, schedule: Q04DX003 (ip), vehicle: saline with Tween-80",3 of 6
same,survivor count,"dose: 25.0 mg/kg/injection, schedule: Q04DX003 (ip), vehicle: saline",2 of 6
same,survivor count,[8],0 of 6
same,survivor count,"dose: 100.0 mg/kg/injection, schedule: Q04DX003 (ip), vehicle: saline with Tween-80",0 of 6
same,survivor count,[10],0 of 6
same,survivor count,[13],0 of 6
same,survivor count,[14],0 of 6
O=[N+]([O-])c1cc2c3c(cccc3c1)CC2,survivor count,"dose: 200.0 mg/kg/injection, schedule: Q01DX001 (ip), vehicle: saline",6 of 6
O=C(O)c1cc(S(=O)(=O)F)c(Cl)cc1Cl,survivor count,"dose: 200.0 mg/kg/injection, schedule: Q01DX009 (ip), vehicle: saline with Tween-80",3 of 6
same,survivor count,[5],3 of 6
CC(C)(C)OC(=O)CNC(=O)CCl,survivor count,[12],2 of 6

# Source: PubChem BioAssay AID248 (DTP/NCI, 2004)
